Data set [1] has as its system psbA 5'UTR-specific nuclear-encoded protein complex (heparin-agarose purified) (Chlamydomonas reinhardtii). In words: competition with a labelled probe. Particulars: purified native protein, protein details: heparin-agarose purified fraction, variant of psbA 5'UTR wild type.
Data set [2] has the same test system. In words: EMSA. The following applies: 4 mM MgCl2, 100 mM KOAc, pH 7.5, room temperature, wheat germ tRNA competitor; 250-fold unlabeled RNA competes; purified native protein; protein details: heparin-agarose purified fraction; label: 32P.
Data set [3] concerns chloroplast 30S ribosomal subunit (Chlamydomonas reinhardtii). In words: footprint. The following applies: toeprint with E. coli tRNAfMet, 37 C; pauses 12 nt 3' of SD and of AUG; purified native protein; protein details: high-salt washed, sucrose gradient.
The mark [4] stands for this setting: unlabeled mutant RNA competes wild type.

The exact form of at least one protein or probe is not confirmed. For part of these data: The comparison behind a weaker result is the experiment's own reference, which may not be listed here.

Take “UUACAAAUUAAAACUUUAAAAAAAUUAACAUAUG [psbA 5'UTR RBS-del]”: the binding result in data set [1] (unlabeled mutant RNA competes wild type, each mutant stated as recognized) is recorded as “binds”.

On to “UUACCCAGAAAUUAAAACUUUAAAAAAAUUAACAUAUG [psbA 5'UTR RBS-Alt]”, for which the binding result in data set [1] (setting [4]) is on record as “binds”.

Consider “UUACGGAGAAAAAAAAUUAACAUAUG [psbA 5'UTR RBS-15]”, for which the binding result in data set [1] (setting [4]) is given as “binds”.

Turning to “UUACGGAGAAAAACUUUAAAAAAAUUAACAUAUG [psbA 5'UTR RBS-23]”, the binding result in data set [1] (setting [4]) is “binds”.

Turning to “UUACGGAGAAAUUAAAACUUUAAAAAAAUUAACAUAUG [psbA 5'UTR wild type]”, the binding result in data set [2] is listed as “binds”.

Consider “UUACGGAGAAAUUAAAACUUUAAAAAAAUUAACAUAUG [psbA D1-HA transcript (5' end of psbA mRNA)]”, for which the binding result in data set [3] was “binds”.

For “UUACGGAGAAAUUAAAACUUUAGGAGGAUUAACAUAUG [psbA 5'UTR SD-Add (RBS-Add)]”, in data set [1] (setting [4]), the binding result is “binds”.

As to “UUACGGAGAAAUUAAACAUAUG [psbA 5'UTR RBS-11]”, the binding result in data set [1] (recognized but failed to fully compete wild type RNA) is listed as “binds more weakly”.

For the sequence “UUACGGAGACUUUAAAAAAAUUAACAUAUG [psbA 5'UTR RBS-19]”, the binding result in data set [1] (setting [4]) was “binds”.

The values are drawn from patent publication US20040014174.
